PubChem BioAssay AID1259297 | Sanger Institute – 2017

- Purpose: 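siRNA screen across the kinome seeking drug partners in cells of colorectal cancer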 (primary screen)
- Cells: human RCM1 colorectal cancer cell line
- Knock-down reagent: siRNA pool against human genes
- Conditions: separate arms: DMSO vehicle, or one anchor drug at a mild dose: BYL719 1 µM, cetuximab 5 µg/ml, trametinib 10 nM
- Detection: 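Replicate-mean well viability as a share of non-targeting pool control, a robust z-score without drug, and synergy scores for BYL719, cetuximab and trametinib arms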
- Direction: viability z-score, knock-down alone: higher = more viable cells than non-targeting controls; viability, knock-down alone (DMSO): higher = more viable cells
- Active means: 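Called essential if knock-down without drug gives a viability robust z-score under -3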
- Meaning of the calls: active = essential when knocked down alone; inactive = no clear loss of viability alone
This is an unselected part of 794 deposited reagents. 13 of all reagents (1.6%) count as active. 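Calls reflect knock-down without drug only; drug synergy is judged separately, with scores above 0.15 counted as synergy.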 No viability above 1 is reported: the scale is capped. Not all columns of the deposit are shown. The record does not give: the amount of reagent, the time to read-out.

gene | viability z-score, knock-down alone | viability, knock-down alone (DMSO) (fraction of control) | activity call
AURKC | -0.24 | 0.894 | inactive
PRP4K | -0.944 | 0.829 | inactive
BRD3 | 0.9 | 1 | inactive
CDK16 | -0.114 | 0.906 | inactive
GRK7 | -0.745 | 0.847 | inactive
ACVR1B | 0.9 | 1 | inactive
MST1R | 0.9 | 1 | inactive
BRSK2 | 0.9 | 1 | inactive
COMMD3 | 0.251 | 0.94 | inactive
ACSL6 | 0.9 | 1 | inactive
TESK2 | 0.9 | 1 | inactive
HUNK | -2.11 | 0.72 | inactive
PTGS1 | -0.804 | 0.842 | inactive
SRGAP3 | 0.616 | 0.974 | inactive
WHR1 | 0.9 | 1 | inactive
EPHA1 | 0.612 | 0.973 | inactive
MAPK14 | 0.791 | 0.99 | inactive
CPNE3 | -0.298 | 0.889 | inactive
PTEN | -0.142 | 0.903 | inactive
MKNK1 | 0.9 | 1 | inactive
CDKL5 | 0.511 | 0.964 | inactive
STK32A | 0.754 | 0.986 | inactive
PLK2 | 0.498 | 0.963 | inactive
MPP1 | 0.9 | 1 | inactive
PIP4K2B | -0.573 | 0.863 | inactive
BRAF | -0.103 | 0.907 | inactive
SYNCRIP | -0.292 | 0.889 | inactive
MTOR | 0.8 | 0.991 | inactive
CDK11B | -0.661 | 0.855 | inactive
DYRK4 | 0.000109 | 0.916 | inactive
AMHR2 | -1.07 | 0.817 | inactive
MYH10 | 0.496 | 0.963 | inactive
WIPF1 | 0.229 | 0.938 | inactive

Next part (2 carried over from the part before).
gene | viability z-score, knock-down alone | viability, knock-down alone (DMSO) (fraction of control) | activity call
MYH10 | 0.496 | 0.963 | inactive
WIPF1 | 0.229 | 0.938 | inactive
TSSK1B | 0.411 | 0.955 | inactive
AKAP9 | -0.312 | 0.887 | inactive
PDGFRA | 0.9 | 1 | inactive
ABL2 | 0.9 | 1 | inactive
PTK2B | -0.903 | 0.833 | inactive
PDGFRL | 0.81 | 0.992 | inactive
FGR | -0.349 | 0.884 | inactive
PKIA | -0.139 | 0.904 | inactive
GTF2H1 | -1.35 | 0.791 | inactive
TNK2 | 0.9 | 1 | inactive
PIP4K2C | -0.695 | 0.852 | inactive
ZC3H11A | 0.9 | 1 | inactive
ADK | -1.59 | 0.769 | inactive
TBK1 | -0.896 | 0.833 | inactive
MAK | -0.982 | 0.825 | inactive
GUCY2F | 0.829 | 0.993 | inactive
CAMK4 | -0.278 | 0.891 | inactive
